Laboratory results taken from US20110172217A1, “RING-FUSED MORPHOLINE DERIVATIVE HAVING PI3K-INHIBITING ACTIVITY” (Shionogi & Co., Ltd., priority 2008, published 2011).
Some of these results come from one statement about several compounds together.

Test system: AKT phosphorylation in human monocyte-like cell line THP-1
Assay: AKT phosphorylation inhibitory activity in MCP-1 stimulated THP-1 cells (ELISA)
Assay type: cell-based
Settings: compound at 1 μmol/L, MCP-1 stimulation

For `O=C(O)c1ccccc1Nc1ccc2c(n1)N(C(=O)Nc1ccccc1)CCO2` [Compound I-145], which “AKT phosphorylation inhibition ratio” value is on record?
Its value is > 99.5%.

For `O=C(O)c1ccc(Nc2ccc3c(n2)N(C(=O)Nc2ccccc2)CCO3)cc1` [Compound I-146], which “AKT phosphorylation inhibition ratio” value is on record?
The value was > 99.5%.

With `COc1ccc(-c2ccc3c(n2)N(C2=NC(=O)C(C)(C)S2)CCO3)cc1OC` [Compound I-330] as the molecule, how does the “AKT phosphorylation inhibition ratio” value read?
The value was > 99.5%.
